# Measured values: the supplement of paper PMC5949888
# ± gives the standard deviation of the averaged measurements. Most values lie at the floor of the assay. Slopes are relative: functional sequences can read slightly below zero.
# Test system: Saccharomyces cerevisiae PS128 hsf1 delta, HSF1(1-493) fusion
# Assay: growth estimate (transactivation domain function in HSF1 fusion, heat-shock survival) (a.u. (slope of normalised read count over time)); higher = stronger growth at 37°C, i.e. more transactivation activity
# Conditions: library: random library
row,Substance,growth estimate
1,IRDQDTVTVIYRRFRGSSSG,< -0.25
2,SSRN,< -0.25
3,RWPVGCSQLYGGLENFRGVC,< -0.25
4,NFINSAS,< -0.25
5,SDNRQHGGATKHRAPETDVS,< -0.25
6,CYQHVGRVGVRAGRAREST,< -0.25
7,INPTQDIITVS,< -0.25
8,SRQDSLGPPSTDPLSRATSV,< -0.25
9,HKRCSDLLCGCGRLAQQGS,< -0.25
10,DIRRGGVAQEILVTRSGISN,< -0.25
11,RGVAKDARYTVNPLALLGTT,< -0.25
12,WHEITHRNARVLPGRIPQIG,< -0.25
13,CRI,< -0.25
14,RGILLGTW,< -0.25
15,CRVL,< -0.25
16,LLWRIDALRIRNPAWARGLS,< -0.25
17,SVLATFGMGRPPPLFSYTRD,< -0.25
18,VTPVPTTVGGAPGHRSDGVV,< -0.25
19,GVSFCCARRVAQ,< -0.25
20,KIGRIELLGSARRR,-0.245
21,TTTK,< -0.25
22,HSRLQ,< -0.25
23,IMRL,< -0.25
24,VFACSVVYEGIGSVWASIFP,< -0.25
25,GCFLH,< -0.25

row,Substance,growth estimate
1,CCSDGLADVKPNYSA,< -0.25
2,HVNDDVFEANWGITLRQVRS,< -0.25
3,TFAKSGVNRAN,< -0.25
4,VSSLADYLGASTLGRVLENH,< -0.25
5,ASTDYNVGGNVTYMRRCCAD,-0.198
6,LRRPERLLSIIISTTSV,< -0.25
7,RGNHQTDGDTHYGSNLFNQV,< -0.25
8,DLPRNEENTGGNRH,< -0.25
9,GDILDLDLIGGGTRLVLGA,< -0.25
10,SWSSHFAPSVVVRAVLASNS,< -0.25
11,MHLAAQRCQWPKVGSSVSDE,< -0.25
12,SICGSLLPVFGGL,< -0.25
13,GFERCARNCQSEVSHFTPST,< -0.25
14,ASVAYRNVGGVSAG,< -0.25
15,GVLLRRVRVLCDRRLSFAVV,< -0.25
16,WHPQESFVCEHVGHLSRETL,< -0.25
17,PWQGRTHA,< -0.25
18,RATCQCSALLNGDGR,< -0.25
19,GIQRPEESTAPVPVGSGENW,< -0.25
20,PEVCELFTGSPSIVRSGGDV,< -0.25
21,PRLYHVTNNPFPPLSEEWDA,< -0.25
22,RNGARGLMSGSHNQPPQGHR,-0.245
23,QFVERFRRSIRYLVTT,< -0.25
24,IGAQQWFQQYRGQGTGIGSY,< -0.25
25,EISSRNRGVMPIRLIMAGMR,-0.168

row,Substance,growth estimate
1,RTASQLRAGLVVPDWF,< -0.25
2,VRLFCVWLRMSRVVPYGRVE,< -0.25
3,LAYESDSRKLWNKVEFSGAR,< -0.25
4,SQSRLSGGPFQRFLHSGCCG,< -0.25
5,GIELRADAPESGDHTSCTVG,< -0.25
6,RMRWGKGTSSSREAGNYGRT,-0.243
7,HRCWGNKARRKLGRPNWPRV,< -0.25
8,MESKSRVRW,< -0.25
9,STFAKPMPILSPSCKVGSLR,< -0.25
10,LSIVA,< -0.25
11,IFGHVGRVGFYSQRGFVN,< -0.25
12,GTSCPCIVNTGCTRNVFFVT,< -0.25
13,LEC,< -0.25
14,IYHNIPVGGALPALRRPKRE,< -0.25
15,VWWGRHPRPRGCGWLDYIL,< -0.25
16,GQIVVGHRGTAVAVESVHVI,< -0.25
17,GLANETAGLQRVPRDYSMVA,< -0.25
18,PGHQTPHRDFVW,-0.0948
19,SKRYR,< -0.25
20,QLMPCGAVDRLGPQRWSGQG,< -0.25
21,TWVVGRAYAGSHLMFTCITS,< -0.25
22,LSGSTGLLT,< -0.25
23,NGAMTTKSRKRARYCPLKRQ,< -0.25
24,HFESRAVL,< -0.25
25,NSTAALGVVRWKEVPSCYAA,< -0.25

# Quoted from the listing:
# For growth estimate, INPTQDIITVS has the entry < -0.25
# For growth estimate, DLPRNEENTGGNRH has the entry < -0.25

# (continued)

row,Substance,growth estimate
1,GSCEGPSQDLNSPSSYRIVP,< -0.25
2,ESCVWRVARRRSSSLLIARA,< -0.25
3,NGEL,< -0.25
4,SSRQPQRVSGQKVHGPIEPC,< -0.25
5,GDIFRDGNHF,< -0.25
6,GICIR,< -0.25
7,IGNTQILSCSVRGSLSVSFR,< -0.25
8,CIRCSYRIPSGPGAIIQFSE,< -0.25
9,ERRRPNLLCGLPWSLLLSIR,< -0.25
10,LCLFCTHAAGLLR,< -0.25
11,GAGSECLRQPRTTDGISESV,< -0.25
12,GKDGAANVTG,-0.243
13,PERTMTTG,< -0.25
14,GSLGASASLPRGAADGNTKS,< -0.25
15,SEGRCHCVIQWPALGGQSSG,< -0.25
16,PKAKLQCGVRV,< -0.25
17,GCRRNSSQERQAPPFCGQSR,< -0.25
18,ASVKYGEDRL,< -0.25
19,SRSGGSEVNSVADVGCLSWE,< -0.25
20,PGVSRPSLGGNGDD,< -0.25
21,QRSPVANSDDALASEITILD,< -0.25
22,RFWLKKSPVSVEKIGFFMAD,< -0.25
23,STSGR,< -0.25
24,SEPKI,< -0.25
25,SHRVLSPVKAFSGGNSSHP,< -0.25

# Reformatted: results already given
row	Substance	growth estimate
13	PERTMTTG	< -0.25
23	STSGR	< -0.25
24	SEPKI	< -0.25

# An excerpt of these results, as tab-separated lines.
row	Substance	growth estimate
19	SRSGGSEVNSVADVGCLSWE	< -0.25
20	PGVSRPSLGGNGDD	< -0.25
21	QRSPVANSDDALASEITILD	< -0.25
22	RFWLKKSPVSVEKIGFFMAD	< -0.25
23	STSGR	< -0.25
24	SEPKI	< -0.25
25	SHRVLSPVKAFSGGNSSHP	< -0.25

# Going on with the list.

row,Substance,growth estimate
1,GPLKRNLSSGSMTGAVRKHR,< -0.25
2,LDLGYDTSHTTRGRKVGLWS,< -0.25
3,QKSLFGPKRSGGGKPPSDSS,< -0.25
4,PLQKFFGVKSSNCSAGCDDG,< -0.25
5,HVLASGK,< -0.25
6,VLL,-0.241 ± 0.012
7,SLW,< -0.25
8,NRRSRQGIYVWNRINHSAWE,< -0.25
9,FSDTA,< -0.25
10,CRGAYNEPQEFCLYSIFAIE,< -0.25
11,LKCLEGWSIARLLWSKVGPA,< -0.25
12,HNTRQVKTVRLARPLLRSFR,< -0.25
13,KWRRGCRKIAKSL,< -0.25
14,GKGTIRRIPDFCSLKATRVV,< -0.25
15,RGGIYGYRGLVA,< -0.25
16,YARSAVGLQLLLAHYEYEKR,< -0.25
17,GLVT,< -0.253
18,LVSPGPSLTVEEDLFDRREQ,< -0.25
19,MGGSLFFLRCFMVFDPSEVG,< -0.25
20,VVKDGGDKQDRHRFHAPVT,< -0.25
21,IKHRT,< -0.25
22,GIREVGPLGSAEAYSPLWGE,-0.227
23,EHKLD,< -0.25
24,CPFGNSWCRSTASGLSRSER,< -0.25
25,GFLNAASPYTTRSV,< -0.25

row,Substance,growth estimate
1,DLPALHVGLRPYFI,< -0.25
2,HPVRQRYHTSVARLFHMCRH,< -0.25
3,HWICTERKAVVPWVRIPC,< -0.25
4,CYSRGARPQFFGAKCARDGI,< -0.25
5,RFLRTHYLRSGY,< -0.25
6,EVRTHNPTMA,< -0.25
7,SHGVMRPNSTLNYVILCRLA,< -0.25
8,GRNDVVPEISTQG,< -0.25
9,NCWIR,< -0.25
10,HARARRARRSVSHLCNNEAA,< -0.25
11,VTSIRQFS,< -0.25
12,SVSA,< -0.25
13,PYCVVPARD,< -0.25
14,VTPERCLRRCGSLKFGVSGH,< -0.25
15,WPIC,< -0.25
16,LQGVQLIDAS,< -0.25
17,GPVGTSL,< -0.25
18,FVLSLAYCPRRS,< -0.25
19,RRCSP,< -0.25
20,DTYGRGSAIGSSQEGV,< -0.25
21,LSTQVSKRD,< -0.25
22,SQCCVFTIALGAWCVRLKIV,< -0.25
23,LELERGS,-0.245
24,QVGGLCVNRLICAVSVGPTP,< -0.25
25,SVSTDPGFML,< -0.25

row,Substance,growth estimate
1,GLGPAGTIDERMFRMEHLGW,< -0.25
2,CPITLCPCQWLTVQRGRLMM,< -0.25
3,VCGRLQA,< -0.25
4,NCELADFETTDRIQQLLSI,< -0.25
5,QSRTPSAAAAPQVQKPCEDR,< -0.25
6,VADGCTSR,< -0.25
7,RIQPT,< -0.25
8,WTRSGIRID,< -0.25
9,PGFWRSGSSDLPVIGIRMTA,< -0.25
10,CGQPRLARGWCIVCPSGLHW,< -0.25
11,GHRSLIGMFRAKPRSMGAGT,< -0.25
12,SGVPLPWFLSLLAECRAADV,< -0.25
13,SFPLRNPRVRRLGTPGRPAE,< -0.25
14,SHFDA,-0.243
15,GWT,< -0.25
16,DARLSSRWAYV,< -0.25
17,STHVSWYGDFMVRGREFING,< -0.25
18,RGAVGGRGSATGRRCGRNLS,< -0.25
19,YRTNTQTTLRTLLHFNSSAI,< -0.25
20,QML,< -0.25
21,GSSINVRNGGENNGFTSRAE,< -0.25
22,HGIQRDQCHPSLCVVQVLQL,< -0.25
23,TACVHARDTTIVRLYCAY,< -0.25
24,CIDHPVR,< -0.25
25,APCGGWK,< -0.25

row,Substance,growth estimate
1,TKQHLNL,< -0.25
2,QSLMSGGDEIISSVHSGVKD,< -0.25
3,ISISFGTA,< -0.25
4,LDSSDGTLRILRGWLPGHLN,< -0.25
5,PWSKHRQDRCYKRARLLLYT,-0.243
6,VPM,< -0.25
7,GPPYTDRLATYPQCRLSVGP,< -0.253
8,HSGLSTP,< -0.25
9,RGVYFK,-0.247
10,RTA,< -0.25
11,TYD,< -0.25
12,GFLNFRIGSR,< -0.25
13,RKYSARHCSSAMVVLARVAD,< -0.25
14,IYARVLCLRS,-0.229
15,LTLHGQDLVRNTNFLTGSKA,< -0.25
16,MQSMRSTTNTK,< -0.25
17,SGGCLASEGESWWASDGFTS,< -0.25
18,SRRTTLWQRVVGGWGNVASP,< -0.25
19,TRILPHGDPIMERPTNGPST,< -0.25
20,YECKSV,< -0.25
21,SLVHCDFRYFAAPDWRSG,< -0.25
22,ALRGSSNQE,< -0.25
23,ITEVCCMGASRESLRCSWYE,< -0.25
24,KWI,< -0.25
